These are yes or no findings as the source states them, for the method shown. Binding seen in cells or lysates may run through a third protein. Here binding means that the protein was enriched with, or labelled near, the bait; the list need not be complete. Tags and fused reporters may be left off the sequences shown.
Molecular target: T1, Flag-tagged DKK4 (UniProt Q9UBT3)
T1 sequence: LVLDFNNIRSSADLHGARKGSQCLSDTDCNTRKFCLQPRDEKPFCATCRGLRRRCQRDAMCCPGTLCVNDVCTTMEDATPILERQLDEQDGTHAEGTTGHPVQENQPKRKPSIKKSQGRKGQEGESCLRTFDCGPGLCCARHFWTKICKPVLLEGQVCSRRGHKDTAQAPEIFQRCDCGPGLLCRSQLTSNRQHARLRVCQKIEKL
Experiment: affinity purification with mass spectrometry; total extract of HEK293 DKK4+ cells fractionated on Superose 6; DKK4 peak fractions precipitated with anti-Flag M2 gel or anti-DKK4 antibody; 20 mM Hepes pH 7.9, 200 mM NaCl, 4°C overnight

By UniProt entry, the sequences of proteins in these tests, tags left out. Residues count along the entry.
UniProt O75197, residues 32-1615: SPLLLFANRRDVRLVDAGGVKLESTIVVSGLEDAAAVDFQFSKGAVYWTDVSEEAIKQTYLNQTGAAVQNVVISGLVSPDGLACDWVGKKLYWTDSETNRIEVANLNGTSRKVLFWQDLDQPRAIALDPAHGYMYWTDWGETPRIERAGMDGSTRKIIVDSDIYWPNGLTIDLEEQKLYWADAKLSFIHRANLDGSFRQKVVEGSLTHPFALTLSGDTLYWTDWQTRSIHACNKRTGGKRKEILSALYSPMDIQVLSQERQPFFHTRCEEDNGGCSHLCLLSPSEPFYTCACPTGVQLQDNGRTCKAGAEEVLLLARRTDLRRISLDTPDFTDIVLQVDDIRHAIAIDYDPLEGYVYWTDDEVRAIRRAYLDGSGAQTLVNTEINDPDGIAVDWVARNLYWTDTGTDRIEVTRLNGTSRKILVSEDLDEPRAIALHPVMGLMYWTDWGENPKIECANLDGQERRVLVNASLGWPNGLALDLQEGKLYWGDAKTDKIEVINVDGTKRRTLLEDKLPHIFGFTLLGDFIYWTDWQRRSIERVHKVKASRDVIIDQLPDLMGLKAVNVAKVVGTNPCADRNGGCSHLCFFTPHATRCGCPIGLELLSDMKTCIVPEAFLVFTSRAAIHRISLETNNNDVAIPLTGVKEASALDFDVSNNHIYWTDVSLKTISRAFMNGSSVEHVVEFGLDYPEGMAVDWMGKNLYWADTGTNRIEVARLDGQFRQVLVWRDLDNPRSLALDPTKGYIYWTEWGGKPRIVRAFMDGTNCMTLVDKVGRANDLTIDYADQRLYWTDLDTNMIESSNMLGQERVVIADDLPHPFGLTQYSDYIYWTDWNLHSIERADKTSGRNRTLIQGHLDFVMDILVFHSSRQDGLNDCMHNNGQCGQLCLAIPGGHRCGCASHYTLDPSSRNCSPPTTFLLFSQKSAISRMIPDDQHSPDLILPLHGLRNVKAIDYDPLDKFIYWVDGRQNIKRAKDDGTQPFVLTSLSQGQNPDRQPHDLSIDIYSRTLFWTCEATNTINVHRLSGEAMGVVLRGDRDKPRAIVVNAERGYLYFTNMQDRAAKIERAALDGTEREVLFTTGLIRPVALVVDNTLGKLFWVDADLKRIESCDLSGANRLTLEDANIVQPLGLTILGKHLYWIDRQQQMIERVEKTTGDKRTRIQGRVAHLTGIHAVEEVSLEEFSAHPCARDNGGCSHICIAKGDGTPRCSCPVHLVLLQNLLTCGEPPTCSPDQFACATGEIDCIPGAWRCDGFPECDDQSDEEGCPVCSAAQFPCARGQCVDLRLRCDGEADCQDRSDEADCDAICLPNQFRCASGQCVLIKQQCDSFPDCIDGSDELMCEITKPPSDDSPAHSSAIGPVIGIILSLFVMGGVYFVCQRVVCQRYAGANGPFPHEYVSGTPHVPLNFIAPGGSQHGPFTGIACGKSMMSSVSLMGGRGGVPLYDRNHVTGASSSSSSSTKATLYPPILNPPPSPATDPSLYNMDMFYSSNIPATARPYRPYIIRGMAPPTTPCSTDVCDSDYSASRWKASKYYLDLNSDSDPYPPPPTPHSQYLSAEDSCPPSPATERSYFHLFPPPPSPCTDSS

| binding | Substance |
| --- | --- |
| binds | LRP5, endogenous in HEK293 (from UniProt O75197 32-1615) (receptor) |
| binds | low-density lipoprotein receptor-related protein 1 (LRP1), endogenous in HEK293 (human (endogenous in HEK293)) |
